Assay results as given in PubChem BioAssay AID226 (DTP/NCI, 2004).
The list does not hold the whole screen: it gathers tests that were run many times, whatever their T/C, doses with no T/C, and many T/C values between a quarter and a half above the control. Other doses and runs of a compound stand elsewhere. T/C: endpoint of the treated group in % of that of the vehicle group. Some entries give survivors of the animals treated and no T/C: the source files T/C as zero there, which appears to mark a toxic dose or a test without result, not a measured value. Some survivor counts are full or nearly so, which does not show that the dose was tolerated: the source hardly ever lists a survival T/C far under the control, and the zero likely stands for such cases as well. Survivors were counted at the toxicity check, usually on the fifth day, unless a day is given; later deaths do not show. Schedules are NCI's codes, read here as Q, the interval in days (D) or hours (H), X, the number of doses. Signs of the kind (2×) give the number of equal values in this list. Some entries hold several experiments; the values are given in rising order. For survival time, this PubChem deposit counts one and a half times the control or more as active, and values a quarter to a half above the control carry no call in these data; other NCI protocols may use other cut-offs. Some T/C values are followed by the survivors on the day toxicity was checked, most often the fifth; without a count, all were alive then.

Tested on: B6C3F1 mice, intracerebral ependymoblastoma, median survival T/C
Assay: NCI In Vivo Anticancer Drug Screen. Data for tumor model Ependymoblastoma (intracerebral) in B6C3F1 mice
Conditions: T/C endpoint: median survival time, higher T/C = longer survival
Description: The antitumor activity of compounds was measured in mice bearing transplantable tumors. Survival or tumor size were measured and the results are expressed as the measurement made in the treated group (T) divided by the measurement made in the vehicle treated control group (C). The tumor model used in this assay is Ependymoblastoma (intracerebral) in B6C3F1 mice

[1] = dose: 16.0 mg/kg/injection, schedule: Q01DX005 (ip), vehicle: saline with Tween-80
[2] = dose: 64.0 mg/kg/injection, schedule: Q01DX001 (ip), vehicle: saline with Tween-80

O=NN(CCCl)C(=O)NCCCl
T/C (dose: 2.0 mg/kg/injection, schedule: Q01DX001 (ip), vehicle: saline with Tween-80): 97, 100, 105 (2×), 109, 121 % of control
T/C (dose: 2.0 mg/kg/injection, schedule: Q01DX005 (ip), vehicle: Klucel (hydroxypropylcellulose) (HPC)): 98, 105, 107, 110, 111 (2×), 112, 114, 116 (3×), 117, 119, 120, 122 (2×), 122 [8 of 10 alive], 132, 159 % of control
T/C (dose: 2.5 mg/kg/injection, schedule: Q01DX005 (ip), vehicle: saline with Tween-80): 126 % of control
T/C (dose: 4.0 mg/kg/injection, schedule: Q01DX001 (ip), vehicle: saline with Tween-80): 98, 105, 110 [9 of 10 alive], 111, 117, 121 % of control
T/C (dose: 4.0 mg/kg/injection, schedule: Q01DX005 (ip), vehicle: Klucel (hydroxypropylcellulose) (HPC)): 107, 116, 117, 129 [9 of 10 alive], 132, 138, 146, 152, 153 [9 of 10 alive], 154, 160, 161, 163, 165 (2×), 170, 182, 185 [9 of 10 alive], 245 % of control
T/C (dose: 4.0 mg/kg/injection, schedule: Q01DX005 (ip), vehicle: saline + alcohol): 129 and 142 % of control
T/C (dose: 5.0 mg/kg/injection, schedule: Q01DX005 (ip), vehicle: saline with Tween-80): 137 % of control
T/C (dose: 8.0 mg/kg/injection, schedule: Q01DX001 (ip), vehicle: saline with Tween-80): 97, 111, 125, 131, 133, 140 % of control
T/C (dose: 8.0 mg/kg/injection, schedule: Q01DX001 (ip), vehicle: saline): 129 % of control
T/C (dose: 10.0 mg/kg/injection, schedule: Q01DX001 (ip), vehicle: alcohol): 135 % of control
T/C (dose: 15.0 mg/kg/injection, schedule: Q01DX001 (ip), vehicle: saline + alcohol): 147 % of control
T/C (dose: 16.0 mg/kg/injection, schedule: Q01DX001 (ip), vehicle: saline with Tween-80): 108, 139, 156, 175, 190, 210 % of control [8 of 10 alive]
T/C (dose: 16.0 mg/kg/injection, schedule: Q01DX001 (ip), vehicle: saline): 137 % of control
survivor count (dose: 16.0 mg/kg/injection, schedule: Q01DX005 (ip), vehicle: saline + alcohol): 10 of 10
survivor count [1]: 9 of 10
survivor count (dose: 16.0 mg/kg/injection, schedule: Q01DX009 (ip), vehicle: saline with Tween-80): 9 of 10
T/C (dose: 20.0 mg/kg/injection, schedule: Q01DX005 (ip), vehicle: saline with Tween-80): 126 % of control
T/C (dose: 32.0 mg/kg/injection, schedule: Q01DX001 (ip), vehicle: saline with Tween-80): 207, 220, 254, 300 (2×), 300 % of control [9 of 10 alive]
survivor count (dose: 40.0 mg/kg/injection, schedule: Q01DX005 (ip), vehicle: saline with Tween-80): 10 of 10
T/C [2]: 300 % of control
survivor count [2]: 8 of 10 and 10 of 10
survivor count (dose: 64.0 mg/kg/injection, schedule: Q01DX001 (ip), vehicle: saline): 10 of 10 on day 14
survivor count (dose: 80.0 mg/kg/injection, schedule: Q01DX001 (ip), vehicle: alcohol): 10 of 10
survivor count (dose: 80.0 mg/kg/injection, schedule: Q01DX001 (ip), vehicle: saline with Tween-80): 5 of 10
survivor count (dose: 80.0 mg/kg/injection, schedule: Q01DX005 (ip), vehicle: saline with Tween-80): 9 of 10
survivor count (dose: 160.0 mg/kg/injection, schedule: Q01DX001 (ip), vehicle: alcohol): 10 of 10
survivor count (dose: 320.0 mg/kg/injection, schedule: Q01DX001 (ip), vehicle: alcohol): 9 of 10

O=C1c2c(O)ccc(O)c2C(=O)c2c(NCCNCCO)ccc(NCCNCCO)c21
survivor count (dose: 4.0 mg/kg/injection, schedule: Q01DX005 (ip), vehicle: saline with Tween-80): 10 of 10 (2×)
survivor count (dose: 8.0 mg/kg/injection, schedule: Q01DX005 (ip), vehicle: saline with Tween-80): 5 of 10 and 10 of 10
survivor count [1]: 6 of 10
survivor count (dose: 32.0 mg/kg/injection, schedule: Q01DX005 (ip), vehicle: saline with Tween-80): 2 of 10
survivor count (dose: 64.0 mg/kg/injection, schedule: Q01DX005 (ip), vehicle: saline with Tween-80): 0 of 10

COC1C(O)C(C)OC(OC2C(Oc3cccc4c(O)c5c(=O)oc6ccc(C)c7c(=O)oc(c34)c5c67)OC(C)C(O)C2O)C1O (stereo not drawn)
survivor count (dose: 256.0 mg/kg/injection, schedule: Q01DX005 (ip), vehicle: saline with Tween-80): 0 of 10
survivor count (dose: 256.0 mg/kg/injection, schedule: Q01DX005 (ip), vehicle: saline): 0 of 10

CC(=O)OC1COC(NC(=O)N(CCCl)N=O)C(OC(C)=O)C1OC(C)=O (stereo not drawn)
T/C (dose: 0.75 mg/kg/injection, schedule: Q01DX009 (ip), vehicle: saline with Tween-80): 125 % of control
T/C (dose: 1.5 mg/kg/injection, schedule: Q01DX009 (ip), vehicle: saline with Tween-80): 147 % of control
T/C (dose: 3.0 mg/kg/injection, schedule: Q01DX005 (ip), vehicle: saline with Tween-80): 128 % of control
T/C (dose: 6.0 mg/kg/injection, schedule: Q01DX005 (ip), vehicle: saline with Tween-80): 146 % of control
survivor count (dose: 12.0 mg/kg/injection, schedule: Q01DX005 (ip), vehicle: saline with Tween-80): 3 of 10

COc1cccc2c1C(=O)c1c(O)c3c(c(O)c1C2=O)C[C@@](O)(C(=O)CO)C[C@@H]3OC1CC(N)C(O)C(C)O1 (stereo partly drawn)
T/C (dose: 0.5 mg/kg/injection, schedule: Q03HX008 (ip), vehicle: saline): 127 % of control
survivor count (dose: 1.0 mg/kg/injection, schedule: Q03HX008 (ip), vehicle: saline): 10 of 10
T/C (dose: 2.0 mg/kg/injection, schedule: Q01DX005 (ip), vehicle: saline): 132 % of control
survivor count (dose: 2.0 mg/kg/injection, schedule: Q03HX008 (ip), vehicle: saline): 4 of 10 and 8 of 10
survivor count (dose: 4.0 mg/kg/injection, schedule: Q01DX005 (ip), vehicle: suspension in saline): 10 of 10
survivor count (dose: 4.0 mg/kg/injection, schedule: Q01DX005 (ip), vehicle: water): 9 of 10 and 10 of 10
survivor count (dose: 8.0 mg/kg/injection, schedule: Q01DX005 (ip), vehicle: saline): 10 of 10 (2×)
survivor count (dose: 8.0 mg/kg/injection, schedule: Q01DX005 (ip), vehicle: water): 7 of 10 and 9 of 10
survivor count (dose: 16.0 mg/kg/injection, schedule: Q01DX005 (ip), vehicle: saline): 7 of 10
survivor count (dose: 16.0 mg/kg/injection, schedule: Q01DX005 (ip), vehicle: water): 1 of 10
survivor count (dose: 32.0 mg/kg/injection, schedule: Q01DX005 (ip), vehicle: water): 0 of 10

CCC(=O)O[C@H]1CC[C@H]2[C@@H]3CCC4=CC(=O)CC[C@]4(C)[C@H]3CC[C@]12C
survivor count (dose: 32.0 mg/kg/injection, schedule: Q01DX005 (ip), vehicle: Klucel (hydroxypropylcellulose) (HPC)): 6 of 6
survivor count (dose: 64.0 mg/kg/injection, schedule: Q01DX005 (ip), vehicle: Klucel (hydroxypropylcellulose) (HPC)): 6 of 6
survivor count (dose: 256.0 mg/kg/injection, schedule: Q01DX005 (ip), vehicle: Klucel (hydroxypropylcellulose) (HPC)): 6 of 6

COC1OC(CNC(=O)N(C)N=O)C(O)C(O)C1O (stereo not drawn)
T/C (dose: 25.0 mg/kg/injection, schedule: Q01DX005 (ip), vehicle: saline): 127 % of control
T/C (dose: 50.0 mg/kg/injection, schedule: Q01DX005 (ip), vehicle: saline): 145 % of control
T/C (dose: 100.0 mg/kg/injection, schedule: Q01DX005 (ip), vehicle: saline): 141 and 145 % of control
T/C (dose: 200.0 mg/kg/injection, schedule: Q01DX005 (ip), vehicle: saline): 138 and 140 % of control
T/C (dose: 400.0 mg/kg/injection, schedule: Q01DX005 (ip), vehicle: saline): 132 % of control
survivor count (dose: 800.0 mg/kg/injection, schedule: Q01DX005 (ip), vehicle: saline): 10 of 10

O=NN(CCCl)C(=O)NC1CCCN(Cc2ccccc2)C1 (stereo not drawn)
T/C (dose: 12.5 mg/kg/injection, schedule: Q01DX001 (ip), vehicle: distilled water + Tween-80): 126 % of control
T/C (dose: 25.0 mg/kg/injection, schedule: Q01DX001 (ip), vehicle: distilled water + Tween-80): 129 % of control
survivor count (dose: 200.0 mg/kg/injection, schedule: Q01DX001 (ip), vehicle: distilled water + Tween-80): 5 of 10

O=NN(CCF)C(=O)NC1CCC(=O)NC1=O (stereo not drawn)
survivor count (dose: 40.0 mg/kg/injection, schedule: Q01DX005 (ip), vehicle: Klucel (hydroxypropylcellulose) (HPC)): 5 of 10 on day 6
